Measurements reported in publication PMC3715442.

Protein sequences, listed by entry. Tags and fused reporters are not part of them. Lines headed by an entry give the natural chain unless they say otherwise; changes in a name come on top.
UniProt P05412, whole entry: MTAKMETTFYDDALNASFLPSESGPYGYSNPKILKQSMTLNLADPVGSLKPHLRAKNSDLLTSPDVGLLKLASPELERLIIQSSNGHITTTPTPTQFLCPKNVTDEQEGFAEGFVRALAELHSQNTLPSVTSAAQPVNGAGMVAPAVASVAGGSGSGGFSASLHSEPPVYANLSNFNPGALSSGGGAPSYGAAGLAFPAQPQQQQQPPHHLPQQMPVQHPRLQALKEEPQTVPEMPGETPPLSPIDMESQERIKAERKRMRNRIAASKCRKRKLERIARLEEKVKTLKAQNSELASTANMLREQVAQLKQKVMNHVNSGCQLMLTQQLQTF
UniProt P17535: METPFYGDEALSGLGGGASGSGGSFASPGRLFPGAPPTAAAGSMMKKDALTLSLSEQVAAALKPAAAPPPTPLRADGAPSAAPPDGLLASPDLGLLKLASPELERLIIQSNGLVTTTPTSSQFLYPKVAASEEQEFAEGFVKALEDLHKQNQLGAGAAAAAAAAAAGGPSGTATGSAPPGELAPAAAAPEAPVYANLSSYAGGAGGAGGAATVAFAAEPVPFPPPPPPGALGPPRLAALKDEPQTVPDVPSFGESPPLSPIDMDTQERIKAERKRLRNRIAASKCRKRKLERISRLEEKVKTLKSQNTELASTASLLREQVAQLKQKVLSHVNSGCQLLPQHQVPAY

Key:
[1] = target: c-Jun (UniProt P05412); test: EMSA supershift; details: c-Jun antibody; 1x EMSA binding buffer (composition not given), 1 ug poly-dIdC, 10 ug nuclear extract, 2 ug antibody for supershift, room temperature 30 min, 4% TBE gel; protein in an extract; label: 32P 5' end (T4 PNK)
[2] = target: JunD (UniProt P17535); test: EMSA supershift; details: JunD antibody; 1x EMSA binding buffer (composition not given), 1 ug poly-dIdC, 10 ug nuclear extract, 2 ug antibody for supershift, room temperature 30 min, 4% TBE gel; protein in an extract; label: 32P 5' end (T4 PNK)

ACTTCGGTGACTTCATCCACC (double strand) [rs12190287-C]
binding result [1]: binds
binding result [2]: binds

For at least one entry, the source does not settle the construct or the ends of the probe. Where cells or extracts were used, other partners may take part. At least one verdict was read from the data and is not stated in words by the source.
